The values below come from PubChem BioAssay AID2685 (National Center for Advancing Translational Sciences (NCATS), 2010).

This is one part of the list. The main result of the screen is listed elsewhere. These columns were measured beside it and carry no call. The list favours compounds with an active or inconclusive main result. Words in brackets tell the shape of the fitted curve; partial curves, single points and poor fits give uncertain potencies.

The assay in a line: qHTS Assay for Lipid Storage Modulators in Drosophila S3 Cells.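 On cell number change: cells counted by Cell Tracker Red CMTPX staining in the red channel.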 Particulars: BODIPY lipid droplet fluorescence, 18-24 h; for cell number change: measured here: cell count max response, cells fed with added oleic acid. In outline:
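Drosophila S3 cells got compounds at several concentrations plus oleic acid (400 uM solution). Laser-scanning cytometry with 488 nm excitation read lipid droplets at 500-530 nm and cells at 575-640 nm. Percent activity was relative to 20 uM Triacsin C.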
Background: qHTS replaces the single test concentration by a dilution series.

Setting [1] is: measured here: cell number channel AC50, cells fed with added oleic acid.
Setting [2] is: measured here: lipid fluorescence (Fed channel) AC50, cells fed with added oleic acid.

With `COc1ccc(/C=C2\SC(=S)N(CCC(=O)NCCCN3CCOCC3)C2=O)cc1`, the cell number change was -2.63%.

Regarding `Cc1cc(NC(=O)c2cc3ccccc3o2)ccc1NC(=O)c1ccccc1`, the cell number change is -20.9%.

As to `COc1cccc(CNC(=O)COc2cccc(-n3cnnn3)c2)c1`, the cell number change amounted to 78.3%. Moreover, the AC50 under setting [1] is 23.1 µM [rising, partial curve]. Moreover, the concentration at half-maximal activity (AC50) under setting [2] is 29.1 µM [rising, single point].

With `COc1ccccc1C(=O)COC(=O)c1ccc(N(C)C)cc1`, the cell number change is 74.2%. The concentration at half-maximal activity (AC50) under setting [1] is 20.6 µM [rising, partial curve, poor fit].

In the case of `COc1ccccc1N(CN1CCCC1=O)C(=O)COc1ccccc1`, the cell number change stood at 18.7%. Moreover, the AC50 under setting [2] is 25.9 µM [rising, single point].

As to `CC1CCCCC12NC(=O)N(CC(=O)N1CCN(C(=O)c3ccco3)CC1)C2=O` (stereo not drawn), the cell number change is -6.33%. The half-maximal activity concentration (AC50) under setting [2] was 3.66 µM [falling, partial curve, poor fit].

Take `Cc1ccc(CCNC(=O)c2nc(CS(=O)(=O)c3ccc(Cl)cc3)no2)cc1`: the cell number change is -10.8%. Further, the half-maximal activity concentration (AC50) under setting [2] was 0.231 µM [rising, partial curve, poor fit].

For `Oc1ccccc1/C=N/Nc1nc2ccccc2o1`, the cell number change was -30.9%. Besides, under setting [1], the AC50 was 2.59 µM [falling, full curve]. Moreover, the AC50 under setting [2] is 29.1 µM [falling, single point].

Regarding `CCn1c(Cn2nnc(-c3ccccc3)n2)nnc1SCc1ccc(Cl)c(Cl)c1`, the cell number change stood at 69.4%. In addition, under setting [1], the half-maximal activity concentration (AC50) is 6.51 µM [rising, full curve]. Also, the AC50 under setting [2] was 6.51 µM [rising, single point].

Turning to `Cc1cc(=O)n(CCCc2ccccc2)[nH]1`, the cell number change came out at 24.8%. The AC50 under setting [2] is 0.651 µM [rising, partial curve].

`Cc1ccc(C23CC4CC(CC(C(=O)N(C)C)(C4)C2)C3)cc1`: the AC50 is 0.58 µM [falling, single point] under setting [1] and 0.58 µM [falling, single point] under setting [2].

Consider `O=C(Nc1ccc(N2C(=O)CCC2=O)cc1Cl)c1cccs1`, for which the cell number change amounted to 5.43%.

As for `c1ccc(-n2c(SCc3ccncc3)nnc2-c2ccco2)cc1`, the cell number change was -13.3%.

Consider `O=C(Cn1nnc(-c2ccncc2)n1)N1CCc2ccccc21`, for which the cell number change is 3.05%.

`N#CC1=C(N)OC2=C(C(=O)CC(c3ccccc3)C2)C1c1ccc2c(c1)OCO2` (stereo not drawn): the cell number change amounted to 12.2%. For the same compound, the AC50 under setting [2] is 0.411 µM [rising, full curve].

As for `COc1cccc(CNC(=O)c2ccc(S(=O)(=O)N3CCCC3)cc2)c1`, the cell number change is -11.9%. Moreover, the AC50 under setting [2] is 6.51 µM [falling, single point].

Regarding `CCN(CC)S(=O)(=O)c1ccc2oc(Nc3ccc(OC)cc3OC)nc2c1`, the cell number change is 12.4%. The half-maximal activity concentration (AC50) under setting [2] is 0.231 µM [rising, full curve].

In the case of `COC(=O)[C@@H]1CC[C@H](C)[C@@H](c2ccc(C)cc2)N1C(=O)c1ccc(/C=N/OCC[C@@H]2C=C[C@H](OC(C)=O)[C@@H](COC(C)=O)O2)cc1`, the cell number change was -7.05%. The half-maximal activity concentration (AC50) under setting [2] is 14.6 µM [falling, single point].

Turning to `Cc1[nH]c2ccccc2c1C(=O)C(=O)NCCc1c[nH]c2ccccc12`, the cell number change is -18.9%. The AC50 under setting [2] was 0.092 µM [rising, full curve, poor fit].

For the compound `CCc1nnc(NS(=O)(=O)c2ccc(NC(=S)NC(=O)c3ccc(OC)c(OC)c3)cc2)s1`, the cell number change was -17.8%. For the same compound, the AC50 under setting [2] was 1.64 µM [falling, partial curve, poor fit].

Regarding `CCCn1c(CN2CCN(C(=O)OCC)CC2)nc2c1c(=O)n(C)c(=O)n2C`, the cell number change amounted to 9.19%. Besides, the AC50 under setting [2] was 6.51 µM [falling, single point].

In the case of `CC1(C)CC(=O)C2=C(C1)N(C1CCCCC1)C(=O)C2(O)C(F)(F)F` (stereo not drawn), the cell number change stood at 6.64%. Under setting [2], the half-maximal activity concentration (AC50) is 1.46 µM [falling, full curve, poor fit].

For the compound `O=C(NCC1(N2CCCCC2)CCCCC1)c1cccc(NS(=O)(=O)c2ccccc2)c1`, the cell number change is -50%. Moreover, under setting [1], the AC50 is 29.1 µM [falling, single point].

For `Cc1cc(C)c(S(=O)(=O)NCc2ccc3c(c2)OCO3)cc1C`, the cell number change worked out at 17.6%.

Consider `CCCCNC(=O)NNC(=O)COc1cc(C)cc(C)c1`, for which the cell number change was -8.95%. Also, under setting [2], the half-maximal activity concentration (AC50) is 6.51 µM [falling, partial curve, poor fit].

As for `CCCN1CCN(C(=O)c2cccc3c2C(=O)N(CCOC)C3)CC1`, the cell number change is -35.1%. In addition, the AC50 under setting [1] is 6.51 µM [falling, partial curve]. Besides, the concentration at half-maximal activity (AC50) under setting [2] was 6.51 µM [falling, single point].

Consider `COCCNC(=O)COc1ccc(Br)cc1Cl`, for which the cell number change was found to be 83.4%. Under setting [1], the concentration at half-maximal activity (AC50) was 14.6 µM [rising, partial curve]. Further, the AC50 under setting [2] is 2.31 µM [rising, partial curve, poor fit].

Take `CCSC1=C(C#N)C(c2ccc(C)o2)CC(=O)N1` (stereo not drawn): the cell number change stood at 3.74%. The half-maximal activity concentration (AC50) under setting [1] was 2.31 µM [rising, single point].

`Cc1ccc(C(=O)OC(C)C(=O)Nc2ccc(Cl)cn2)s1` (stereo not drawn): the cell number change is -4.93%. Besides, the concentration at half-maximal activity (AC50) under setting [2] was 4.11 µM [rising, partial curve, poor fit].

Regarding `Cc1nc2ccc(C(=O)N3c4ccccc4CC3C)cc2s1` (stereo not drawn), the cell number change is 117%. The AC50 under setting [1] is 16.4 µM [rising, partial curve].

`CN1CCN(CCCCOc2ccc(F)cc2)CC1`: the cell number change was 0.129%. Also, under setting [2], the AC50 was 0.00461 µM [rising, full curve, poor fit].

As for `CCCc1c(O)nc(SC2CC(=O)N(c3ccc(OC)cc3)C2=O)[nH]c1=O` (stereo not drawn), the cell number change is -8.54%. Besides, the AC50 under setting [2] is 0.731 µM [rising, single point].

Turning to `Cc1cc(C(=O)N2CCN(S(C)(=O)=O)CC2)sc1-c1ccccc1`, the cell number change turned out to be 12%. The AC50 under setting [2] is 29.1 µM [falling, single point].

For `CCOc1cc(/C=N/n2cnnc2)cc(Br)c1O`, the cell number change is -16.9%. In addition, the half-maximal activity concentration (AC50) under setting [2] is 0.82 µM [rising, full curve].

With `Cc1nc2ccccc2c(=O)n1/N=C/c1cc(Br)ccc1O`, the cell number change turned out to be 13.5%. The AC50 under setting [2] is 6.51 µM [falling, single point].

For the compound `COc1cc(/C=C2\CC/C(=C\c3ccc(OCCO)c(OC)c3)C2=O)ccc1OCCO`, under setting [2], the AC50 was 14.6 µM [falling, partial curve, poor fit].

As to `CCN(CC)CCN(C(=O)c1ccc(S(=O)(=O)N2CCCCC2)cc1)c1nc2cc3c(cc2s1)OCO3`, the cell number change was -6.13%. The AC50 under setting [1] was 2.59 µM [falling, partial curve].

For `CNS(=O)(=O)c1ccc(N2CCCC2)c([N+](=O)[O-])c1`, the cell number change was found to be 71.3%.

As to `CCS(=O)c1ccccc1C(=O)O` (stereo not drawn), the cell number change is -34.5%. In addition, under setting [1], the concentration at half-maximal activity (AC50) is 1.3 µM [falling, full curve]. Further, under setting [2], the AC50 was 2.59 µM [rising, single point].

As to `COc1ccc(-c2noc(CCC(=O)NCc3cc(Br)ccc3OC)n2)cc1`, the cell number change was -19.5%. In addition, the concentration at half-maximal activity (AC50) under setting [1] is 0.517 µM [falling, partial curve].

`CCN1CCN(CC(=O)Nc2ccc3c(c2)OCCO3)C(=O)C1=O`: the cell number change was -17.1%. Under setting [2], the half-maximal activity concentration (AC50) is 0.651 µM [falling, full curve, poor fit].

With `Cc1ccc(S(=O)(=O)CNC(=S)c2ccc3ccccc3c2)cc1`, the cell number change stood at 15.2%. Besides, the AC50 under setting [1] is 0.13 µM [falling, full curve]. Moreover, the half-maximal activity concentration (AC50) under setting [2] was 1.46 µM [falling, partial curve].

For `CC1=CC(C)[C@H](/C=N/n2c(=O)[nH]c3c([nH]c4ccc(C)cc43)c2=O)C(C)C1` (stereo partly drawn), the cell number change is -64.6%. Also, under setting [1], the half-maximal activity concentration (AC50) is 8.2 µM [falling, partial curve]. The concentration at half-maximal activity (AC50) under setting [2] is 7.31 µM [falling, partial curve].

Regarding `CN(CC(=O)Nc1ccccc1Cl)C1CCS(=O)(=O)C1` (stereo not drawn), the cell number change was -35%. Under setting [1], the AC50 was 29.1 µM [falling, single point]. Also, the concentration at half-maximal activity (AC50) under setting [2] was 23.1 µM [falling, single point].

With `CCCCOc1ccc(C(=O)OCC(=O)Nc2cc(C)on2)cc1`, the cell number change was determined as 4.27%. Also, under setting [2], the concentration at half-maximal activity (AC50) is 29.1 µM [falling, partial curve, poor fit].

With `CCOc1ccc(NC(=O)Nc2ccccc2SC)cc1`, the cell number change is -10.1%. The concentration at half-maximal activity (AC50) under setting [2] was 3.66 µM [falling, single point].

For the compound `CC(C)CN(C(=O)COC(=O)CCCc1c[nH]c2ccccc12)c1c(N)n(Cc2ccccc2)c(=O)[nH]c1=O`, the cell number change is -21.6%.

On to `CC(C)CC(=O)Nc1cccc(C(C)O)c1` (stereo not drawn), for which the AC50 under setting [2] is 0.00651 µM [falling, full curve, poor fit].

Regarding `Cc1c(C(=O)N/N=C/c2cccs2)nnn1-c1nonc1N`, the cell number change came out at 10.1%. Also, the AC50 under setting [2] was 29.1 µM [falling, single point].

On to `CCOc1ccc(-c2noc(CCCC(N)=O)n2)cc1OC`, for which the concentration at half-maximal activity (AC50) is, setting by setting: under setting [1], 1.84 µM [rising, partial curve]; under setting [2], 3.66 µM [rising, single point].

For `Cc1ccc(/C=C2\NC(=S)NC2=O)cc1[N+](=O)[O-]`, the cell number change is 20.3%. Besides, the AC50 under setting [2] is 16.4 µM [rising, partial curve].

Turning to `C=CCN(c1ccccc1Cl)S(=O)(=O)c1cccc(C(=O)NCCc2ccc(OC)cc2)c1`, the cell number change is 26.1%.

For the compound `CCCc1c(C(=O)N/N=C(\C)CCc2ccccc2)nnn1-c1nonc1N`, the cell number change came out at 24%. For the same compound, the AC50 under setting [2] is 5.17 µM [falling, partial curve, poor fit].

As for `NC(=O)C1CCN(c2oc(/C=C/c3ccccc3)nc2S(=O)(=O)c2ccccc2)CC1`, the cell number change was -5.81%. The AC50 under setting [2] was 1.46 µM [falling, single point].

As to `CCOc1ccc(C2C3=C(Nc4nc(N)[nH]c(=O)c42)c2ccccc2C3=O)cc1` (stereo not drawn), the cell number change stood at 36.8%. Besides, the AC50 under setting [1] is 7.31 µM [rising, partial curve, poor fit]. Also, under setting [2], the concentration at half-maximal activity (AC50) was 14.6 µM [rising, partial curve, poor fit].

For the compound `Cc1[nH]n(-c2ccccc2)c(=O)c1/C=N/N1C(=O)c2cccc3cccc(c23)C1=O`, the cell number change is -17.6%. Moreover, the half-maximal activity concentration (AC50) under setting [2] is 23.1 µM [falling, single point].

Take `CCc1nccn1S(=O)(=O)c1ccc(C)c(C)c1`: the cell number change was -28.4%. Further, the concentration at half-maximal activity (AC50) under setting [1] is 0.651 µM [falling, full curve]. The AC50 under setting [2] is 0.651 µM [falling, full curve].

In the case of `O=C1CCCC(=O)C1=Cc1c[nH]c2ccccc12`, the AC50 under setting [2] is 6.51 µM [falling, single point].

As to `Cc1onc(-c2c(F)cccc2Cl)c1C(=O)NCc1ccc(S(N)(=O)=O)cc1`, the cell number change amounted to 35.3%. The AC50 under setting [1] is 1.46 µM [rising, full curve, poor fit]. For the same compound, the concentration at half-maximal activity (AC50) under setting [2] was 1.16 µM [rising, full curve].

Broadly, the AC50 is the concentration at which the activity in the assay is half-maximal.
